For one molecule, binding results are on record in paper PMC10687140.

This assay has as its target EGFR (human (endogenous in Huh7)) (UniProt P00533). As to the kind of experiment: co-IP; Huh7 cells lysed in NETN buffer (20 mM Tris-HCl pH 8.0, 100 mM NaCl, 1 mM EDTA, 0.5% NP40); lysate incubated with SPINK1 antibody (clone 4D4) or EGFR antibody (clone D38B1) overnight at 4°C, Protein A Sepharose beads 3 hours at 4°C; mouse IgG and rabbit IgG as controls; Western blot.

Results are given in words; binding and its absence hold for the method and conditions named. Binding seen in cells or lysates may run through a third protein. Some entries that bind do so weakly or less than the wild type.

B1: SPINK1 (protein, UniProt P00995 24-79)
chain: DSLGREAKCYNELNGCTKIYDPVCGTDGNTYPNECVLCFENRKRQTSILIQKSGPC
Consider B1, for which the binding entry is reported as “binds”.
